Taken from: PubChem BioAssay AID652259 (Drosophila RNAi Screening Center, 2013)
The screen tested about 22,000 reagents; shown is an unselected part of those with a known target gene and a result. In the full data, 233 (1.1%) are marked active. 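Light values are raw, unnormalised plate reads; the ratio scores behind the reporter calls were not deposited.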 The record does not give: the amount of reagent, the time to read-out, the dose of the treatment.

Screen: 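Identify new Wingless signalling regulators in fly cells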 (primary screen)
Cell system: Drosophila clone 8 imaginal disc epithelial cells
Reagent: long dsRNA against Drosophila genes
Conditions: pathway stimulated by co-transfected Wingless expression plasmid
Measurement: 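Dual luciferase reads per well after Wingless plasmid stimulation: reporter firefly light and Renilla control light; activity is firefly divided by Renilla, a ratio not deposited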
Reading the numbers: firefly reporter light: higher = more Wg reporter light, before normalisation; Renilla control light: higher = more transfected or surviving cells
Hit rule: 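a knock-down is a candidate when at least two out of four statistical tests show it departing from its plate mean; one test alone signals a weak candidate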
Calls: active = candidate regulator (raises or lowers reporter); inactive = not a candidate

For Vm26Ac [DRSC02329], how do the results read?
firefly reporter light, replicate 1: 2804; firefly reporter light, replicate 2: 7284; Renilla control light, replicate 1: 1281; Renilla control light, replicate 2: 2905; activity call: inactive

How did the screen score eEF1delta [DRSC02790]?
firefly reporter light, replicate 1: 11814; Renilla control light, replicate 1: 2026; activity call: inactive

For CG5532 [DRSC04509], what was measured?
firefly reporter light, replicate 1: 3014; Renilla control light, replicate 1: 835; activity call: inactive

For zf30C [DRSC03641], what does the deposit list?
firefly reporter light, replicate 1: 11248; Renilla control light, replicate 1: 3350; activity call: inactive

For CG17129 [DRSC08508], how do the results read?
firefly reporter light, replicate 1: 11975; Renilla control light, replicate 1: 4552; activity call: inactive

Which result is listed for cact [DRSC03501]?
firefly reporter light, replicate 1: 10471; Renilla control light, replicate 1: 3083; activity call: inactive

What is on record for nsr [DRSC04427]?
firefly reporter light, replicate 1: 19618; Renilla control light, replicate 1: 6059; activity call: inactive

What did the screen give for nsr [DRSC22806]?
firefly reporter light, replicate 1: 5.57e5; firefly reporter light, replicate 2: 6.10e5; Renilla control light, replicate 1: 2.05e5; Renilla control light, replicate 2: 2.55e5; activity call: inactive

How did the screen score CG8388 [DRSC07157]?
firefly reporter light, replicate 1: 5052; Renilla control light, replicate 1: 1590; activity call: inactive

What did the screen give for Porin2 [DRSC02584]?
firefly reporter light, replicate 1: 3597; firefly reporter light, replicate 2: 8936; Renilla control light, replicate 1: 1415; Renilla control light, replicate 2: 4977; activity call: inactive

With CG3483 [DRSC04371], how do the results read?
firefly reporter light, replicate 1: 13520; Renilla control light, replicate 1: 3274; activity call: inactive

Which result is listed for CR42546 [DRSC03711]?
firefly reporter light, replicate 1: 3364; firefly reporter light, replicate 2: 8520; Renilla control light, replicate 1: 818; Renilla control light, replicate 2: 3360; activity call: inactive

With Csgalnact [DRSC06228], how do the results read?
firefly reporter light, replicate 1: 1603; firefly reporter light, replicate 2: 6569; Renilla control light, replicate 1: 624; Renilla control light, replicate 2: 2432; activity call: inactive

For Prp4k [DRSC08144], how do the results read?
firefly reporter light, replicate 1: 9360; Renilla control light, replicate 1: 2661; activity call: inactive

What did the screen give for CG34434 [DRSC18134]?
firefly reporter light, replicate 1: 15573; Renilla control light, replicate 1: 8170; activity call: inactive

How did the screen score CG14505 [DRSC06476]?
firefly reporter light, replicate 1: 5035; Renilla control light, replicate 1: 2131; activity call: inactive

For CG4017 [DRSC02733], what was measured?
firefly reporter light, replicate 1: 2022; firefly reporter light, replicate 2: 4124; Renilla control light, replicate 1: 476; Renilla control light, replicate 2: 1996; activity call: inactive

With Pten [DRSC03402], what does the deposit list?
firefly reporter light, replicate 1: 2656; firefly reporter light, replicate 2: 8808; Renilla control light, replicate 1: 1058; Renilla control light, replicate 2: 3312; activity call: inactive

With Or71a [DRSC11244], what does the deposit list?
firefly reporter light, replicate 1: 5721; Renilla control light, replicate 1: 2085; activity call: inactive

What is on record for CG14983 [DRSC08441]?
firefly reporter light, replicate 1: 5075; Renilla control light, replicate 1: 2363; activity call: inactive

With CG6923 [DRSC16136], what was measured?
firefly reporter light, replicate 1: 5386; Renilla control light, replicate 1: 2162; activity call: inactive

With a5 [DRSC00798], what does the deposit list?
firefly reporter light, replicate 1: 2919; firefly reporter light, replicate 2: 7328; Renilla control light, replicate 1: 887; Renilla control light, replicate 2: 2208; activity call: inactive

For tbrd-2 [DRSC07020], what does the deposit list?
firefly reporter light, replicate 1: 3325; Renilla control light, replicate 1: 1504; activity call: inactive

With dsb [DRSC08407], what does the deposit list?
firefly reporter light, replicate 1: 6259; Renilla control light, replicate 1: 994; activity call: inactive

For dsb [DRSC08542], what does the deposit list?
firefly reporter light, replicate 1: 7941; Renilla control light, replicate 1: 2874; activity call: inactive
